Structures can show the parent of a compound that is named as a salt. ± gives the standard deviation of the averaged measurements. Some of the results follow.

This assay deals with APPdp1-6 iPSC-derived neurons. The experiment in a line: pThr231Tau/total Tau ratio Z-score vs DMSO vehicle wells; higher = more pThr231Tau relative to total Tau. The settings on record: 5 µM; treatment time 5 days.
In the case of `CC[C@H](C)C(=O)O[C@H]1C[C@H](O)C=C2C=C[C@H](C)[C@H](CC[C@@H](O)C[C@@H](O)CC(=O)O)[C@H]21` [Prestw-1319], the “pThr231Tau/total Tau ratio Z-score” value is -0.435 ± 0.7. The same measure for `Cc1cccc(C)c1NC(=O)CN1CCN(CCCC(c2ccc(F)cc2)c2ccc(F)cc2)CC1` [Prestw-381]: -0.903 ± 1; for `NC[C@H]1O[C@H](O[C@H]2[C@H](O)[C@@H](O[C@H]3O[C@H](CO)[C@@H](O)[C@H](N)[C@H]3O)[C@H](N)C[C@@H]2N)[C@H](N)[C@@H](O)[C@@H]1O` [BECANAMYCIN SULFATE    Therap cat: antibiotic]: 1.11 ± 1.5. The same measure for `CC(=O)O[C@]1(C(C)=O)CC[C@H]2[C@@H]3C=C(C)C4=CC(=O)CC[C@]4(C)[C@H]3CC[C@@]21C` [Prestw-956]: -0.734 ± 1.8. The same measure for `Nc1nnc(-c2cccc(Cl)c2Cl)c(N)n1` [Prestw-1492]: -0.606 ± 0.018; for `CC[C@@]1(O)C(=O)OCc2c1cc1n(c2=O)Cc2cc3c(CN(C)C)c(O)ccc3nc2-1` [Prestw-1196]: -1.26 ± 1.2; for `Clc1cc(Cl)c(OCC#CI)cc1Cl` [Prestw-1269]: 0.132 ± 0.25. On to `O=C(Nc1ccccc1)OCC(CN1CCCCC1)OC(=O)Nc1ccccc1` (stereo unspecified) [Prestw-300], for which the “pThr231Tau/total Tau ratio Z-score” value came out at 1.19 ± 2.1. On to `CCCC(=O)Nc1ccc(OCC(O)CNC(C)C)c(C(C)=O)c1` (stereo unspecified) [Prestw-69], for which the “pThr231Tau/total Tau ratio Z-score” value amounted to 0.61 ± 0.22. On to `C[C@@H]1O[C@@H](OC[C@H]2O[C@@H](Oc3c(-c4ccc(O)c(O)c4)oc4cc(O)cc(O)c4c3=O)[C@H](O)[C@@H](O)[C@@H]2O)[C@H](O)[C@H](O)[C@H]1O` [RUTOSIDE  (rutin), vascular protectant], for which the “pThr231Tau/total Tau ratio Z-score” value was -1.25 ± 0.17. Consider `CN1[C@@H]2CC[C@H]1C[C@@H](OC(c1ccccc1)c1ccccc1)C2` [Prestw-1236], for which the “pThr231Tau/total Tau ratio Z-score” value is -1.15 ± 0.65.

For the compound `CC(=O)Nc1ccc(OCC(O)CNC(C)C)cc1` (stereo unspecified) [Prestw-332], the “pThr231Tau/total Tau ratio Z-score” value was -0.0593 ± 1.4.

Consider `CC(=O)OCC(=O)[C@@]12OC3(CCCC3)O[C@@H]1C[C@H]1[C@@H]3CCC4=CC(=O)C=C[C@]4(C)[C@@]3(F)[C@@H](O)C[C@@]12C` [Prestw-1476], for which the “pThr231Tau/total Tau ratio Z-score” value is -1.16 ± 0.59. Take `N=C(N=C(N)N)N1CCOCC1` [Prestw-84]: the “pThr231Tau/total Tau ratio Z-score” value was determined as 0.166 ± 0.33.

On to `N[C@@H](CC(=O)N1CCn2c(nnc2C(F)(F)F)C1)Cc1cc(F)c(F)cc1F` [SITAGLIPTIN, DPP4 inhibitor, antidiabetic], for which the “pThr231Tau/total Tau ratio Z-score” value was determined as 0.602 ± 1.7. Turning to `C[N+]1(C)C2CCC1CC(OC(=O)C(O)c1ccccc1)C2` (stereo unspecified), the “pThr231Tau/total Tau ratio Z-score” value was 0.356 ± 0.043. The figure for `CNCC[C@@H](Oc1ccccc1C)c1ccccc1` [Prestw-1463] is -0.658 ± 0.35; for `CNCC[C@@H](Oc1ccccc1C)c1ccccc1` [ATOMOXETINE HYDROCHLORIDE, norepinephrine reuptake inhibitor] it is -1.07 ± 0.21; for `O=C(CCCCC(=O)Nc1c(I)cc(I)c(C(=O)O)c1I)Nc1c(I)cc(I)c(C(=O)O)c1I` [IODIPAMIDE    Therap cat: radioopaque agent] it is -0.918 ± 0.53. For the compound `O=C(CCCCC(=O)Nc1c(I)cc(I)c(C(=O)O)c1I)Nc1c(I)cc(I)c(C(=O)O)c1I` [Prestw-939], the “pThr231Tau/total Tau ratio Z-score” value was -0.442 ± 0.66. The figure for `O=C(O)Cc1cc(I)c(Oc2ccc(O)c(I)c2)c(I)c1` [Prestw-202] is -1.11 ± 0.029.

Consider `COCCCOc1ccnc(C[S+]([O-])c2nc3ccccc3[nH]2)c1C` (stereo unspecified) [Prestw-1495], for which the “pThr231Tau/total Tau ratio Z-score” value is -1.34 ± 0.82.

As to `CCCc1nc2c(C)cc(-c3nc4ccccc4n3C)cc2n1Cc1ccc(-c2ccccc2C(=O)O)cc1` [Prestw-1350], the “pThr231Tau/total Tau ratio Z-score” value was determined as 0.368 ± 0.07.

As to `COCCCOc1cc(C[C@@H](C[C@H](N)[C@@H](O)C[C@H](C(=O)NCC(C)(C)C(N)=O)C(C)C)C(C)C)ccc1OC` [ALISKIREN HEMIFUMARATE, renin inhibitor], the “pThr231Tau/total Tau ratio Z-score” value was determined as 0.773 ± 1.8. The figure for `C#C[C@]1(OC(C)=O)CC[C@H]2[C@@H]3CCC4=CC(=O)CC[C@@H]4[C@H]3CC[C@@]21C` is 0.0772 ± 1.2; for `CCCCOC(=O)c1ccc(O)cc1` [Prestw-894] it is 1.1 ± 2.9. In the case of `N=C(N)N1CCc2ccccc2C1` [Prestw-372], the “pThr231Tau/total Tau ratio Z-score” value was 0.163 ± 0.94. The figure for `CC1=CC(=O)c2ccccc2C1=O` [Menadione] is 1.83 ± 0.83; for `CCCCC1C(=O)N(c2ccccc2)N(c2ccccc2)C1=O` [Prestw-1310] it is -0.834 ± 0.1; for `CN(C)CCN(Cc1ccc(Cl)cc1)c1ccccn1` [Prestw-807] it is 0.117 ± 0.45. The same measure for `NS(=O)(=O)Cc1noc2ccccc12` [Prestw-1162]: 1.19 ± 0.99; for `COc1ccc2c(c1)C(=O)N(CCc1ccc(S(=O)(=O)NC(=O)NC3CCCCC3)cc1)C(=O)C2(C)C` [Prestw-991]: -0.647 ± 0.29. With `Cc1cn([C@H]2C[C@H](N=[N+]=[N-])[C@@H](CO)O2)c(=O)[nH]c1=O` [Prestw-333], the “pThr231Tau/total Tau ratio Z-score” value was -0.281 ± 0.22.

As to `COC(=O)[C@@H](N)CS` [MECYSTEINE HYDROCHLORIDE    Therap cat: mucolytic], the “pThr231Tau/total Tau ratio Z-score” value turned out to be 0.691 ± 0.87.

Take `COc1ccc([C@@H]2Sc3ccccc3N(CCN(C)C)C(=O)[C@@H]2OC(C)=O)cc1` [Prestw-134]: the “pThr231Tau/total Tau ratio Z-score” value was determined as 0.808 ± 0.61.

On to `CN(C)[C@@H]1C(=O)C(C(=O)NCN2CCCC2)=C(O)[C@@]2(O)C(=O)C3=C(O)c4c(O)cccc4[C@@](C)(O)[C@H]3C[C@@H]12` [ROLITETRACYCLINE, antibacterial], for which the “pThr231Tau/total Tau ratio Z-score” value was found to be 0.64 ± 0.76.

The record behind these values is the supplement of paper PMC6414424.
